Source: paper PMC5095591
These are yes or no findings as the source states them, for the method shown. Binding seen in cells or lysates may run through a third protein. Some binding calls cover weakened binding; strength is not graded here. For some assays here: Tags and fused reporters may be left off the sequences shown.

T1: TEX12 (mouse) (UniProt Q9CR81)
T1 sequence: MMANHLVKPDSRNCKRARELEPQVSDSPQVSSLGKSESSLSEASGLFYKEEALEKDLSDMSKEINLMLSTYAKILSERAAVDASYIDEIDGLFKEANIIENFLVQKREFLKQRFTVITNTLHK

T2: Myc-SYCE1 (mouse) (UniProt Q9D495)
T2 sequence: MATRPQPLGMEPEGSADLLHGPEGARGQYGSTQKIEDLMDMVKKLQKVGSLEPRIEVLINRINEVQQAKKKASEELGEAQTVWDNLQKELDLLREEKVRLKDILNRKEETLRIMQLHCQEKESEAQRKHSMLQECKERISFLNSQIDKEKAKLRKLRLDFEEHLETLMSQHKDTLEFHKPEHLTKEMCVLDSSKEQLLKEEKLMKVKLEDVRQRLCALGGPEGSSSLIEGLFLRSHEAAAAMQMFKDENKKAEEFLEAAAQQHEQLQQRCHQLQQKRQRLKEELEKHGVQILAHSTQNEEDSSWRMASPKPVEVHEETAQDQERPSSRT


Assays:
[1] = biological target: T1, TEX12 (mouse); test: co-IP; HEK 293T cells transiently co-transfected; whole cell extracts cleared with protein G Sepharose; immunoprecipitation with anti-Flag, anti-EGFP or anti-Myc antibody; western blotting
[2] = biological target: T2, Myc-SYCE1 (mouse); test: as above

| Binder | binding [1] | binding [2] |
| --- | --- | --- |
| SYCE2 (protein, UniProt Q505B8 1-171) MERHGVAAPPVELKDQEPPAIVESGEHRQSENHEETPGSVAPSASCQLPGPFSSLDSSIETLKKKAQELIENINESRQKDHALMTNFRDSLKMKVSDLTEKLEERMYQVYSHHSKIIQERLQEFTQKMAKINHLEMELKQVCQTVETVYKDLCVQSEVPTCEEQNYKDGEC | binds |  |
| SYCE3 (protein, UniProt B5KM66 1-88) MADSDPGERSYDNMLKMLSDLNKDLEKLLEEMEKISVQATWMAYDMVVMRTNPTLAESMRRLEDAFLNCKEEMEKNWQELLTETKRKQ |  | binds |
